# Data: PMC10123117
# Protein sequences, listed by entry. Tags and fused reporters are not part of them.
# UniProt Q6A4J8: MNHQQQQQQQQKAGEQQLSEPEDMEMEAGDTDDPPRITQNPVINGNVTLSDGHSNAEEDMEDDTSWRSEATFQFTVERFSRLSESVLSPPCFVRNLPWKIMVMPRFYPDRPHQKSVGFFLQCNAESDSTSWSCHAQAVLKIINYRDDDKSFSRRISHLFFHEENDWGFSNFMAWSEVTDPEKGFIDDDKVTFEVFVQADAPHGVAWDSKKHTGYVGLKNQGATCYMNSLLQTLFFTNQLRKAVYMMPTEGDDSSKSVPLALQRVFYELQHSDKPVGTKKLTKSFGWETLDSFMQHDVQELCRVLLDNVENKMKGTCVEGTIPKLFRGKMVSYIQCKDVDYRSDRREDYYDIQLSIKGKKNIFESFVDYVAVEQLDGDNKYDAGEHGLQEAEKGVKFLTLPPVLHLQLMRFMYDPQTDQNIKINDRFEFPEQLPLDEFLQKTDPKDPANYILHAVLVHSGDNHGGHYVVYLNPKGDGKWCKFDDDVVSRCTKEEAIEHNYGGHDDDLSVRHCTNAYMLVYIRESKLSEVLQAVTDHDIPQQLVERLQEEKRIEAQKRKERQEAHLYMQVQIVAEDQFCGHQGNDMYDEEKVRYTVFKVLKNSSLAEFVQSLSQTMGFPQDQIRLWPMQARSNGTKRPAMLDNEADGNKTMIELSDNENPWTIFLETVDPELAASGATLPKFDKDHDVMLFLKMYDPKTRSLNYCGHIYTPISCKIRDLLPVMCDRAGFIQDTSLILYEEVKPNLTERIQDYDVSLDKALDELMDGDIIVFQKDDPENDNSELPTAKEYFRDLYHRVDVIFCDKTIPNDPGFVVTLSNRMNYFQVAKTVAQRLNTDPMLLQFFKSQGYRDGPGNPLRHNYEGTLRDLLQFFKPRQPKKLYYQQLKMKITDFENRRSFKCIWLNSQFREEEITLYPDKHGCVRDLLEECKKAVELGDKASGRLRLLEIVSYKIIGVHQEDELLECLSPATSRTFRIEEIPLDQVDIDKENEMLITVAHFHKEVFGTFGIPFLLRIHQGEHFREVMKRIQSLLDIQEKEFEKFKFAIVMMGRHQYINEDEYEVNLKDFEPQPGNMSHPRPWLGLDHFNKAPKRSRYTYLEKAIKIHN
# UniProt P70388: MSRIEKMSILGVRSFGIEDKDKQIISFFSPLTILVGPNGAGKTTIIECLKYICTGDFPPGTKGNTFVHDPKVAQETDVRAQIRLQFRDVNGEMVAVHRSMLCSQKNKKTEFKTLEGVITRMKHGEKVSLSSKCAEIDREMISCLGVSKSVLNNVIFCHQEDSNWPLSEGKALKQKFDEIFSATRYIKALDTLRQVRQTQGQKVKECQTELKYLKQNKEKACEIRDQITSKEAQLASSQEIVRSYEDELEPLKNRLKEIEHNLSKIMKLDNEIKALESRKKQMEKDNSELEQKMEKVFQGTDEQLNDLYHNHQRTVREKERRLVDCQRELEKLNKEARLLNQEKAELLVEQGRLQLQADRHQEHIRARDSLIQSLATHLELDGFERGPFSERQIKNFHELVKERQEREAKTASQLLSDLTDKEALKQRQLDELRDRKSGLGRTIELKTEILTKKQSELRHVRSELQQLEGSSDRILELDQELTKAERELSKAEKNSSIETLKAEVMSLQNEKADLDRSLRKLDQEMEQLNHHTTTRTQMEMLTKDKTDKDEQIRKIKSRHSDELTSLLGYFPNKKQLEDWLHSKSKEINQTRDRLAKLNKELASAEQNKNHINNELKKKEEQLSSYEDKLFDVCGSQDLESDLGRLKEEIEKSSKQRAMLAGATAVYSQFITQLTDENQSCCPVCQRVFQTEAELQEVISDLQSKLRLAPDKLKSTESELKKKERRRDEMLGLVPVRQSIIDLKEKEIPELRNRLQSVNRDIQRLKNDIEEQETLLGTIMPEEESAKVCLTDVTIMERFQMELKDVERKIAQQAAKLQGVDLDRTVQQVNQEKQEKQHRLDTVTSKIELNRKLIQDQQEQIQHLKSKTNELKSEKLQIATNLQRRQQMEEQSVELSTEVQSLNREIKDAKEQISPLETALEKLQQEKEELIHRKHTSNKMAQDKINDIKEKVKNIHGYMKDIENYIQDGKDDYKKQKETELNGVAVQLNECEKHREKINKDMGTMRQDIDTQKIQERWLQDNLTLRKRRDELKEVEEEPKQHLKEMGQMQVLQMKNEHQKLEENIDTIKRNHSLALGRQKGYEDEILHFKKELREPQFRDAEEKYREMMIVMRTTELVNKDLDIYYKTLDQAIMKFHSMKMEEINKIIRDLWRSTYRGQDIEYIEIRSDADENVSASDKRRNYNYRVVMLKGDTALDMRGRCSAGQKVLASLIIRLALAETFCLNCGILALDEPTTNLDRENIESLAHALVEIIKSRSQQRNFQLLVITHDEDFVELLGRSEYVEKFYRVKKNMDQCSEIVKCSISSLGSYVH
# UniProt P13864: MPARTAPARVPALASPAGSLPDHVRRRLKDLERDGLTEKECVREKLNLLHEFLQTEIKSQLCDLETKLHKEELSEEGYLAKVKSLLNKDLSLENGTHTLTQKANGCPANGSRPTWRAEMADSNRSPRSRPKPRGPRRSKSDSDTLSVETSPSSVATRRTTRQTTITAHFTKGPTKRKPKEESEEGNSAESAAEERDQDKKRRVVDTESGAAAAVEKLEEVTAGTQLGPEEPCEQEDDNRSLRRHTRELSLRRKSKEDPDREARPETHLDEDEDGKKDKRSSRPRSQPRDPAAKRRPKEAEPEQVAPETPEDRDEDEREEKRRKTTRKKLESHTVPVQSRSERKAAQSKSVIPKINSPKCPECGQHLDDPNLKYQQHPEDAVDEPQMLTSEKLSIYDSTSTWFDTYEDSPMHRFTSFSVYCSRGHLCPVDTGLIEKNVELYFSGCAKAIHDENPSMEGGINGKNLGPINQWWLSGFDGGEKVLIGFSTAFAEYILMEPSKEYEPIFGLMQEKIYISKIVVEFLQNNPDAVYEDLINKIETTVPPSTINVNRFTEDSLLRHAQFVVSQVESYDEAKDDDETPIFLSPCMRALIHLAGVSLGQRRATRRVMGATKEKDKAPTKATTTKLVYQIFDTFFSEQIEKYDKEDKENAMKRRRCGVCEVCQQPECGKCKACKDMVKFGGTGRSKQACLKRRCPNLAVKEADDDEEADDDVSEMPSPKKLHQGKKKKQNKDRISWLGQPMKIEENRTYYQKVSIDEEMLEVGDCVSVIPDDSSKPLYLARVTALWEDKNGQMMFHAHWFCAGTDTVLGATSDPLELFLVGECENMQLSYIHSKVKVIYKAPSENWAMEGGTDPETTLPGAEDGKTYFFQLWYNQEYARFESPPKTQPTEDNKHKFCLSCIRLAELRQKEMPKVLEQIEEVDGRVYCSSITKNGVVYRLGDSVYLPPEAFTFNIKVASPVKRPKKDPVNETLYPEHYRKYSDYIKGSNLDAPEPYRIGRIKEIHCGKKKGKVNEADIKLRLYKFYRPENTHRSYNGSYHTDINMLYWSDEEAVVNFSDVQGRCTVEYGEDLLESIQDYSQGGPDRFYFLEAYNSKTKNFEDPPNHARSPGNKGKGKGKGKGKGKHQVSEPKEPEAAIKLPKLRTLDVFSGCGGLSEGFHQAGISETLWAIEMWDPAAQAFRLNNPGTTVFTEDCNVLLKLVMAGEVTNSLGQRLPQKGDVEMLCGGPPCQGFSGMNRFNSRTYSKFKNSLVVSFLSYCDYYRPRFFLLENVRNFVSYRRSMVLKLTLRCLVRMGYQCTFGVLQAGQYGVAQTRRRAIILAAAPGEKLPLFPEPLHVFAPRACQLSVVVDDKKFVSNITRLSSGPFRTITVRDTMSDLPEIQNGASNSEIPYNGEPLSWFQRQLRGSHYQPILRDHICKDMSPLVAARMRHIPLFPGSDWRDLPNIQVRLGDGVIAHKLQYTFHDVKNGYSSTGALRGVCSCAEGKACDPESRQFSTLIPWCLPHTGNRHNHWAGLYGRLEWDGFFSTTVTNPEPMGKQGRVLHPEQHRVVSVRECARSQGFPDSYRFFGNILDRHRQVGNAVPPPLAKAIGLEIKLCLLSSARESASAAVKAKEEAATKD
# UniProt P59178: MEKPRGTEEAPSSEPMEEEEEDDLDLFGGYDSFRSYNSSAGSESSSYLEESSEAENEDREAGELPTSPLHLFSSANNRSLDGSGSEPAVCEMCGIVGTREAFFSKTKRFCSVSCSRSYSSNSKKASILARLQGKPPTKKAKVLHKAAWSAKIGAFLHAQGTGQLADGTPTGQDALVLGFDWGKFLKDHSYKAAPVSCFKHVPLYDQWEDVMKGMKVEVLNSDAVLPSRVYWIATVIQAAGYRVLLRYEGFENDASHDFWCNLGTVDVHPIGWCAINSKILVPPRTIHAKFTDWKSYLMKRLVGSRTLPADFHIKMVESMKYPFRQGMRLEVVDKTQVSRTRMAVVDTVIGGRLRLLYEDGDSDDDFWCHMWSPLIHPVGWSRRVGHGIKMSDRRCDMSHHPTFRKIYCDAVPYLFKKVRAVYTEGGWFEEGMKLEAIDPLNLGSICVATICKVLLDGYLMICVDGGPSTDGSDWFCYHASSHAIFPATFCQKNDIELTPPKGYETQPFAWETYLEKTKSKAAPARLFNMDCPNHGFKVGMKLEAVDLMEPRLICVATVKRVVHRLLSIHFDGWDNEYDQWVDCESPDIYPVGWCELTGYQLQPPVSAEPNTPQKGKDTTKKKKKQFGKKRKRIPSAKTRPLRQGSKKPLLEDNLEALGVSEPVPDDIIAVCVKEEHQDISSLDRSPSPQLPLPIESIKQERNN
# UniProt A2AQH4: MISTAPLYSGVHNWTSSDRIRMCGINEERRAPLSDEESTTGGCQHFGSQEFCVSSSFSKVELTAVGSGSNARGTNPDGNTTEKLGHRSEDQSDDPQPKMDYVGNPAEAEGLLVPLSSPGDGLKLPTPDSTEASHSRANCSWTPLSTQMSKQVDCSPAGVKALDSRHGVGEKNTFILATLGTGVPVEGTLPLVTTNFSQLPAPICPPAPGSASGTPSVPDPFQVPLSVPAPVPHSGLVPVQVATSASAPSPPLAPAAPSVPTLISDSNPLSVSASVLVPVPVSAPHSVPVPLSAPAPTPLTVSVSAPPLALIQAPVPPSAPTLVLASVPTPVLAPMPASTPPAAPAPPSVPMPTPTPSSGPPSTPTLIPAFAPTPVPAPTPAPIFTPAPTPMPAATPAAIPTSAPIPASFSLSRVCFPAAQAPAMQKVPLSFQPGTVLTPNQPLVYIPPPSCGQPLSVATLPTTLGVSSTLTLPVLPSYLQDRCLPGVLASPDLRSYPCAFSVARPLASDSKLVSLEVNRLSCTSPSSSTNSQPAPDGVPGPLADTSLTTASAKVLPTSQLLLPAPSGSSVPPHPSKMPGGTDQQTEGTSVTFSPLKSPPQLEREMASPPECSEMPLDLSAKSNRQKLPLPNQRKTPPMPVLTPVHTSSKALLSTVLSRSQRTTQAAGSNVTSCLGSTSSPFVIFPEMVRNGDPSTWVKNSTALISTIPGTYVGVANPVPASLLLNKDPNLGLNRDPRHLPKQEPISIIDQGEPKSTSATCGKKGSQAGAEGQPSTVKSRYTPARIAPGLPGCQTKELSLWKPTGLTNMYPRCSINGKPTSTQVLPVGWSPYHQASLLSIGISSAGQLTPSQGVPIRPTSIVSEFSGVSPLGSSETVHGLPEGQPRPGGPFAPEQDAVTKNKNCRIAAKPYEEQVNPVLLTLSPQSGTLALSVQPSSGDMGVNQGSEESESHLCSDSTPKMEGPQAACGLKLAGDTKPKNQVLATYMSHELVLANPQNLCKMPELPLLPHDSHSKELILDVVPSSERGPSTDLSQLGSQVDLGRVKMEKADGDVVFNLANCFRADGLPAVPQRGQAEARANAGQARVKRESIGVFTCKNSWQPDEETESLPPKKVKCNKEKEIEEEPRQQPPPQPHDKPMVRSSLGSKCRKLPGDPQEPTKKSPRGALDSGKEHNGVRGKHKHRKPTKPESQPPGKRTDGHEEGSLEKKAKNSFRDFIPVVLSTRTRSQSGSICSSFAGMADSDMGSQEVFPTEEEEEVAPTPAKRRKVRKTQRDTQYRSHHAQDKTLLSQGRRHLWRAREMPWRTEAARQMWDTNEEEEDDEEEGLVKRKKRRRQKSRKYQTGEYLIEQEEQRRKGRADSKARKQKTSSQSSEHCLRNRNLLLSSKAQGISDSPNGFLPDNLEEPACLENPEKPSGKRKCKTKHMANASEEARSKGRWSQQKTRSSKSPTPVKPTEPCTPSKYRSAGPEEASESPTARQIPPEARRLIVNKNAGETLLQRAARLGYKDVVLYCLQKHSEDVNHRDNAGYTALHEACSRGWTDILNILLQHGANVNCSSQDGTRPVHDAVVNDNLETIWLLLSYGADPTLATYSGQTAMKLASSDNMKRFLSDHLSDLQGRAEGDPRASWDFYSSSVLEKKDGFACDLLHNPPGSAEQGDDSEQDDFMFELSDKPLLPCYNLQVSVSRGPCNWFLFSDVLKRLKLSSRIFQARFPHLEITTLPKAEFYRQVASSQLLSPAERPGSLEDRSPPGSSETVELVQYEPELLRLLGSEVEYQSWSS
# Results are given in words; binding and its absence hold for the method and conditions named. Binding seen in cells or lysates may run through a third protein. These calls come from enrichment with a bait or labelling near it, and not all partners need be listed. Sequences can lack the tags named with a protein.
# Target: USP7 (mouse (endogenous in E14TG2a ES cells)) (UniProt Q6A4J8)
# Assay: affinity purification with mass spectrometry; anti-USP7 immunoprecipitation of endogenous USP7 from WT mESC lysate, Usp7-KO ES cells as control, three independent experiments; nanoLC-MS/MS, spectral counts; enriched: fold change >4 and adjusted P <0.05
row,Molecule,binding
1,BCOR (from UniProt Q8CGN4 1-1759),binds
2,MGA (from UniProt A2AWL7 1-3003),binds
3,TRIP12 (from UniProt G5E870 1-2025),binds
4,RING1A (from UniProt O35730 1-406),binds
5,USP11 (from UniProt Q99K46 1-921),binds
6,GMPS (from UniProt Q3THK7 1-693),binds
7,RAD50 (from UniProt P70388 1-1312),binds
8,DNMT1 (from UniProt P13864 1-1620),binds
9,L3MBTL2 (from UniProt P59178 1-703),binds
10,BCORL1 (from UniProt A2AQH4 1-1781),binds
11,RING1B (from UniProt Q9CQJ4 1-336),binds
12,MCM7 (from UniProt Q61881 1-719),binds
13,"PCGF1 (protein, UniProt Q8R023 1-259) MASPQGGQIAIAMRLRNQLQSVYKMDPLRNEEEVRVKIKDLNEHIVCCLCAGYFVDATTITECLHTFCKSCIVKYLQTSKYCPMCNIKIHETQPLLNLKLDRVMQDIVYKLVPGLQDSEEKRIREFYQSRGLDRVSQPSGEEPALSNLGLPFSSFDHSKAHYYRYDEQLSLCLERLSSGKDKNKNVLQNKYVRCSVRAEVRHLRRVLCHRLMLNPQHVQLLFDNEVLPDHMTMKQLWLSRWFGKPSPLLLQYSVKEKRR",binds
14,"TRIM27 (protein, UniProt Q62158 1-513) MASGSVAECLQQETTCPVCLQYFVEPMMLDCGHNICCACLARCWGAAETNVSCPQCRETFPQRHMRPNRHLANVTQLVKQLRTERPSGPGGEMGVCEKHREPLKLYCEQDQMPICVVCDRSREHRGHSVLPLEEAVEGFKEQIQNRLDHLRRVKDLKKRRRAQGEQARAELLSLTQMEREKIVWEFEQLYHSLKEHEYRLLARLEELDLAIYNSINGAITQFSCNISHLSGLIAQLEEKQQQPTRELLQDIGDTLSRAERIRIPEPWITPPDLQEKIHIFAQKCLFLTESLKQFTEKMQSDMEKIQELREAQLYSVDVTLDPDTAYPSLILSDNLRQVRYSYLQQDLPDNPERFNLFPCVLGSPCFIAGRHYWEVEVGDKAKWTIGVCEDSVCRKGGVTSAPQNGFWAVSLWYGKEYWALTSPMTALPLRTPLQRVGIFLDYDAGEVSFYNVTERCHTFTFSHATFCGPVRPYFSLSYSGGKSAAPLIICPMSGIDGFSGHVGNHGHSMETSP",binds
15,"MCMBP (protein, UniProt Q8R3C0 1-642) MPCGEDWLSHPLGIVQGFFAQNGVNPDWEKKVIEYFKEKLKENNAPKWVPSLNEVPLHYLKPNSFVKFRCMIQDMFDPEFYMGIYETVNQNTKARVLHFGKYRDVAECGPQQELDLSSPRSTTSERQTFYCVPVPGESSWVKEAYVNANQARVSPSTSYTPSRHKRSYEDDEDMDLQPSKQKEQHPGSRQAGGLGGLHWCGEPKRLETEASSGQQLNTLNLSSPFDLNFPLPGEKGPACLVKVYEDWDCFKVNDVLELYGVLSVDPVLSVLNSEERDASALLDPMECTDMAEEQRVHSPPASLVPRIHVILAQKLQHINPLLPTCLNKEESRSCQFVSNFMSELSPVRAELLGFLTHALLGDSLAAEYLILHLISTVYTRRDVLPLGKFTVNLSGCPQNSTFTEHLYRIIQHLVPASFRLQMTIENMNQLKLIPHKDYTANRLVSGLLQLPNNTSLVIDETLLEQGQLDTPGVHNVTALSNLITWQKVDYDFSYHQMEFPCNINVLITSEGRSLLPADCQIHLQPQLIPPNMEEYMNGLLSAVLPSVLNKFRIYLTLLRFLDYNLSDDITKAVEDDFVEMRKDDPQSITADDLHQLLVVARFLSLSVGQTTLSRERWLRAKQLELSRKARLQQQKSVNGNEL",binds
16,"MCM3 (protein, UniProt P25206 1-812) MAGTVVLDDVELREAQRDYLDFLDDEEDQGIYQNKVRELISDNQYRLIVSVNDLRRKNEKRANRLLNNAFEELVAFQRALKDFVASIDATYAKQYEEFYIGLEGSFGSKHVSPRTLTSCFLSCVVCVEGIVTKCSLVRPKVVRSVHYCPATKKTIERRYSDLTTLVAFPSSSVYPTKDEENNPLETEYGLSVYKDHQTITIQEMPEKAPAGQLPRSVDVILDDDLVDKVKPGDRIQVVGTYRCLPGKKGCYTSGTFRTVLIACNVKQMSKDIQPAFSADDIAKIKKFSKTRSKDVFEQLARSLAPSIHGHDYVKKAILCLLLGGVERELENGSHIRGDINILLIGDPSVAKSQLLRYVLCTAPRAIPTTGRGSSGVGLTAAVTTDQETGERRLEAGAMVLADRGVVCIDEFDKMSDMDRTAIHEVMEQGRVTIAKAGIHARLNARCSVLAAANPVYGRYDQYKTPMENIGLQDSLLSRFDLLFIMLDQMDPEQDREISDHVLRMHQYRAPGEQDGDALPLGSSVDILATDDPDFTQDDQQDTRIYEKHDSLLHGTKKKKEKMVSAAFMKKYIHVAKIIKPTLTQESAAYIAEEYSRLRSQDSMSSDTARTSPVTARTLETLIRLATAHAKARMSKTVDLQDAEEAVELVQYAYFKKVLEKEKKRKKASEDESDLEDEEEKSQEDTEQKRKRRKTHAKDGESYDPYDFSEAETQMPQVHTPKTDDSQEKTDDSQETQDSQKVELSEPRLKAFKAALLEVFQEAHEQSVGMLHLTESINRNREEPFSSEEIQACLSRMQDDNQVMVSEGIVFLI",binds
17,"MCM5 (protein, UniProt P49718 1-734) MSGFDDPGIFYSDSFGGDPGAEEGQARKSQLQRRFKEFLRQYRVGTDRTGFTFKYRDELKRHYNLGEYWIEVEMEDLASFDEELADHLHKQPAEHLQLLEEAAKEVADEVTRPRPAGDELLQDIQVMLKSDASPSSIRILKSDMMSHLVKIPGIIISASAVRAKATRISIQCRSCHNTLTNIAMRPGLEGYALPRKCNMDQAGRPKCPLDPYFIMPDKCKCVDFQTLKLQELPDAVPHGEMPRHMQLYCDRYLCDKVVPGNRVTIMGIYSIKKFGLNPSKGRDRVGVGIRSSYIRVLGIQVDTDGSGRSFAGSVSPQEEEEFRRLAALPNIYELISKSISPSIFGGMDMKKAIACLLFGGSRKRLPDGLTRRGDINLLMLGDPGTAKSQLLKFVEKCSPIGVYTSGKGSSAAGLTASVIRDPSSRNFIMEGGAMVLADGGVVCIDEFDKMREDDRVAIHEAMEQQTISIAKAGITTTLNSRCSVLAAANSVFGRWDETKGEDNIDFMPTILSRFDMIFIVKDEHNEERDMMLAKHVMTLHVSALTQTQAVEGEIDLAKMKKFIAYCRARCGPRLSAEAAEKLKNRYIIMRSGARQHERDSDRRSSIPITVRQLEAIVRIAEALSKMKLQPFATEADVEEALRLFQVSTLDAALSGNLSGVEGFTTQEDQEMLSRIEKQLKRRFAIGSQVSEHSIVQDFTKQKYPEHAIRKVLQLMLRRGEIQHRMQRKVLYRLK",binds
18,"MCM6 (protein, UniProt P97311 1-821) MDLAAAAEPGAGSQHPEVRDEVAEKCQKLFLDFLEEFQGSDGEIKYLQFAEELIRPERNTLVVSFADLEQFNQQLSTTIQEEFYRVYPYLCRALKTFVKDRKEIPFAKDFYVAFQDLPTRHKIRELTSSRIGLLTRISGQVVRTHPVHPELVSGTFLCLDCQTVIKDVEQQFKYTQPNICRNPVCANRKRFLLDTNKSRFVDFQKVRIQETQAELPRGSIPRSLEVILRAEAVESAQAGDRCDFTGALIVVPDVSKLSTPGARAETNSRVSGADGYETEGIRGLRALGVRDLSYRLVFLACHVAPTNPRFGGKELRDEEQTAESIKNQMTVKEWEKVFEMSQDKNLYHNLCTSLFPTIHGNDEVKRGVLLMLFGGVPKTTGEGTSLRGDINVCIVGDPSTAKSQFLKHVDEFSPRAVYTSGKASSAAGLTAAVVRDEESHEFVIEAGALMLADNGVCCIDEFDKMDMRDQVAIHEAMEQQTISITKAGVKATLNARTSILAAANPVSGHYDRSKSLKQNINLSAPIMSRFDLFFILVDECNEVTDYAIARRIVDLHSRIEESIDRVYSLDDIRRYLLFARQFKPKISKESEDFIVEQYKRLRQRDGSGVTKSSWRITVRQLESMIRLSESMARMHCCDEVQPKHVKEAFRLLNKSIIRVETPDVNLDQEEEIQMETDEGQGGVNGHADSPAPVNRFNGSSEDASQETVSKPSLRLGFAEYCRISNLIVLHLRKMEEEEDESALKRSELVNWYLKEIESEIDSEEELINKKTIIEKVVHRLTHYDHVLIELTQAGLKGSSEGSESYEEDPYLVVNPNYLLED",binds
